Results as given in paper doi:10.1101/2022.12.29.522265.
No constants are given. Whether binding was seen depends on the method and setting. Some binding calls cover weakened binding; strength is not graded here. Tags and fused reporters may be left off the sequences shown. Each block holds one binder with its values, some of them ahead of it.

Target: T1, Bqt3, full-length, fused to the DNA-binding domain (S. pombe) (UniProt O74510)
T1 sequence: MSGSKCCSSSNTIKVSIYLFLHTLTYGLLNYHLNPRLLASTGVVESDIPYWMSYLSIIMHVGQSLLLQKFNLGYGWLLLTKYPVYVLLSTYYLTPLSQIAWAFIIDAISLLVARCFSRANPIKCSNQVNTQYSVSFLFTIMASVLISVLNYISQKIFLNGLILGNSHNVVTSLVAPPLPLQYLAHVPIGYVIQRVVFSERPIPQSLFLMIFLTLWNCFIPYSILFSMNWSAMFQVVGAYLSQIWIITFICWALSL
Test: two-hybrid

binding: no binding
B1: GFP-Bqt4C^369-425 (domain or fragment, UniProt O60158 369-425)
chain: SSPKSKKRSREDFEENEDYNAMVPVKRSRITKLESEVYYEKRKVRALGGIAIGLGVG

binding: binds
Binder: ALGGIAIGLGVGAILPFLF (domain or fragment, UniProt O60158 414-432) [GFP-Bqt4C^414-432 (TMD alone)]
